According to doi:10.1101/2021.01.21.427698:
Results are given in words; binding and its absence hold for the method and conditions named. Some binding calls cover weakened binding; strength is not graded here. Sequences can lack the tags named with a protein.

How the values were obtained:
Assay in all cases: two-tag affinity co-purification of co-expressed proteins
[1] = molecular target: T1, full-length human SEPT7 with a TEV-cleavable C-terminal Strep-tag-II (as in the human hexamers) (human), Q16181; conditions: remark: other sources report otherwise
T1 chain: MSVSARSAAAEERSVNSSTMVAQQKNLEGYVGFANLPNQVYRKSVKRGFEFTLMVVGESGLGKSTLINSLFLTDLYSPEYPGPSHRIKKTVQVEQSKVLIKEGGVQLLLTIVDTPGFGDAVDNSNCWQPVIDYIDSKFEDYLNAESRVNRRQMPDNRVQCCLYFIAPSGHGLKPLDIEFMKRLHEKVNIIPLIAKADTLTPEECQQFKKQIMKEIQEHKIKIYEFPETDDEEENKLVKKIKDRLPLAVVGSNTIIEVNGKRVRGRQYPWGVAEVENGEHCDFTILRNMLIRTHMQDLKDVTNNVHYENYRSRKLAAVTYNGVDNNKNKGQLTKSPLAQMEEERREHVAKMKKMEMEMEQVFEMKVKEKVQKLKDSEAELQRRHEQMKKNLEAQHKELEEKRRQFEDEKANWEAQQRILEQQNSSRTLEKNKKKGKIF

[2] = molecular target: T2, human SEPT9_i3 with a noncleavable C-terminal Strep-tag-II (as in the mammalian octamers-9_i3) (human) (UniProt Q9UHD8)
T2 sequence: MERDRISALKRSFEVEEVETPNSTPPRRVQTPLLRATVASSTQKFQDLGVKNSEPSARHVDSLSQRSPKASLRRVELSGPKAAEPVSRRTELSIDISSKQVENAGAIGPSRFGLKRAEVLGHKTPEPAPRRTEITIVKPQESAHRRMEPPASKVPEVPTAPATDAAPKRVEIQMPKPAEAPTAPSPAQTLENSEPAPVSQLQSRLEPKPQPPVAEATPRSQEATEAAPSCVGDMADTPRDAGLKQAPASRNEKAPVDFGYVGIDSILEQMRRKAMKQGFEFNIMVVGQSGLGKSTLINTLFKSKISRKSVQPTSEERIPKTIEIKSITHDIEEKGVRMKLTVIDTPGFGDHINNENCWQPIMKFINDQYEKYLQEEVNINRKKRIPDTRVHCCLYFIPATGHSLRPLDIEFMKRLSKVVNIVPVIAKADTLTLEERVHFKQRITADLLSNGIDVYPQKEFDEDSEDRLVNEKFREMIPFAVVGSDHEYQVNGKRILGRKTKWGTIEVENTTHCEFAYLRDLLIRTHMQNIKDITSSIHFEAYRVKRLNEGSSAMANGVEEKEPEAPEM

[3] = molecular target: T3, mouse SEPT2 with a TEV-cleavable N-terminal His6-tag (mouse) (UniProt P42208)
T3 sequence: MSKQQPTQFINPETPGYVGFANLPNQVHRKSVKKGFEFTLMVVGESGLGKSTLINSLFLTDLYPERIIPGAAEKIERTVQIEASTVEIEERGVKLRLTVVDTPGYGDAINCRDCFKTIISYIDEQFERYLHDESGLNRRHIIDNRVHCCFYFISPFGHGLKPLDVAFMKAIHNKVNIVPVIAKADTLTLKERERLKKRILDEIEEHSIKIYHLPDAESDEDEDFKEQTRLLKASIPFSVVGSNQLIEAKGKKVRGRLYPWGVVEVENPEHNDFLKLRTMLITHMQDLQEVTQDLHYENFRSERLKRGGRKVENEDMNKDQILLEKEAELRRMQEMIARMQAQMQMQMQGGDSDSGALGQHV

B1: human SEPT2 with a TEV-cleavable N-terminal His6-tag, Q15019 1-361 (protein)
chain: MSKQQPTQFINPETPGYVGFANLPNQVHRKSVKKGFEFTLMVVGESGLGKSTLINSLFLTDLYPERVIPGAAEKIERTVQIEASTVEIEERGVKLRLTVVDTPGYGDAINCRDCFKTIISYIDEQFERYLHDESGLNRRHIIDNRVHCCFYFISPFGHGLKPLDVAFMKAIHNKVNIVPVIAKADTLTLKERERLKKRILDEIEEHNIKIYHLPDAESDEDEDFKEQTRLLKASIPFSVVGSNQLIEAKGKKVRGRLYPWGVVEVENPEHNDFLKLRTMLITHMQDLQEVTQDLHYENFRSERLKRGGRKVENEDMNKDQILLEKEAELRRMQEMIARMQAQMQMQMQGGDGDGGALGHHV
binding [1]: binds

B2: human SEPT2 with a TEV-cleavable N-terminal His6-tag and its C-terminus fused to msfGFP, Q15019 1-361 (protein)
chain: MSKQQPTQFINPETPGYVGFANLPNQVHRKSVKKGFEFTLMVVGESGLGKSTLINSLFLTDLYPERVIPGAAEKIERTVQIEASTVEIEERGVKLRLTVVDTPGYGDAINCRDCFKTIISYIDEQFERYLHDESGLNRRHIIDNRVHCCFYFISPFGHGLKPLDVAFMKAIHNKVNIVPVIAKADTLTLKERERLKKRILDEIEEHNIKIYHLPDAESDEDEDFKEQTRLLKASIPFSVVGSNQLIEAKGKKVRGRLYPWGVVEVENPEHNDFLKLRTMLITHMQDLQEVTQDLHYENFRSERLKRGGRKVENEDMNKDQILLEKEAELRRMQEMIARMQAQMQMQMQGGDGDGGALGHHV
binding [1]: binds

B3: mouse SEPT2 with a TEV-cleavable N-terminal His6-tag (protein, UniProt P42208 1-361)
chain: MSKQQPTQFINPETPGYVGFANLPNQVHRKSVKKGFEFTLMVVGESGLGKSTLINSLFLTDLYPERIIPGAAEKIERTVQIEASTVEIEERGVKLRLTVVDTPGYGDAINCRDCFKTIISYIDEQFERYLHDESGLNRRHIIDNRVHCCFYFISPFGHGLKPLDVAFMKAIHNKVNIVPVIAKADTLTLKERERLKKRILDEIEEHSIKIYHLPDAESDEDEDFKEQTRLLKASIPFSVVGSNQLIEAKGKKVRGRLYPWGVVEVENPEHNDFLKLRTMLITHMQDLQEVTQDLHYENFRSERLKRGGRKVENEDMNKDQILLEKEAELRRMQEMIARMQAQMQMQMQGGDSDSGALGQHV
binding [2]: binds

B4: human SEPT7ΔN19 (untagged, as in the mammalian octamers-9_i3) (domain or fragment, UniProt Q16181 20-437)
chain: MVAQQKNLEGYVGFANLPNQVYRKSVKRGFEFTLMVVGESGLGKSTLINSLFLTDLYSPEYPGPSHRIKKTVQVEQSKVLIKEGGVQLLLTIVDTPGFGDAVDNSNCWQPVIDYIDSKFEDYLNAESRVNRRQMPDNRVQCCLYFIAPSGHGLKPLDIEFMKRLHEKVNIIPLIAKADTLTPEECQQFKKQIMKEIQEHKIKIYEFPETDDEEENKLVKKIKDRLPLAVVGSNTIIEVNGKRVRGRQYPWGVAEVENGEHCDFTILRNMLIRTHMQDLKDVTNNVHYENYRSRKLAAVTYNGVDNNKNKGQLTKSPLAQMEEERREHVAKMKKMEMEMEQVFEMKVKEKVQKLKDSEAELQRRHEQMKKNLEAQHKELEEKRRQFEDEKANWEAQQRILEQQNSSRTLEKNKKKGKIF
binding [3]: binds | binding [2]: binds
